The text below walks through data of the odorant receptor screen of Mainland et al. (2015).

SMILES strings stand for the structures. Values joined by “and” are separate entries in the source; they are usually repeats but may differ in a detail not shown here. Equal values may be shown once. The list shows a part of the results. Single wells; the ratio to wells without odorant was worked out here, and repeats agree poorly.

What all share (test): odorant receptor activation (CRE luciferase / Renilla) (fold of no-odor wells); higher = more activation
Conditions in all cases: 100 µM

Assay [1] concerns OR51A2 clone 1577.
Assay [2] deals with OR51A4 G45C/L227P/R267G clone 1166.
Assay [3] deals with OR51B2 clone 1551.
For assay [4], the system named is OR51B4 V36I/M147T clone 1552.
For assay [5], the system named is OR51B5 clone 1553.
The test system of assay [6] is OR51B6 clone 1554.
For assay [7], the system named is OR51D1 clone 1206.
For assay [8], the system named is OR51E1 S11N clone 1532.
Assay [9] concerns OR51E1 clone 1129.
The test system of assay [10] is OR51E2 clone 1205.
Assay [11] relates to OR51F2 clone 1330.
Assay [12] relates to OR51G1 clone 1165.
Assay [13] concerns OR51G2 clone 1199.
For assay [14], the system named is OR51H1 clone 1187.
The subject of assay [15] is OR51I1 clone 1555.
The test system of assay [16] is OR51I2 clone 1133.
In assay [17] the test system is OR51J1 R75H clone 1698.
Assay [18] concerns OR51L1 I281M clone 1535.
In assay [19] the test system is OR51L1 T196I/A207V clone 1533.
Assay [20] concerns OR51L1 clone 1183.

Regarding `C=CC(C)(O)CCC=C(C)C` (stereo not given) [linalool], the odorant receptor activation in assay [1] turned out to be 0.676; in assay [2], 1.02; in assay [3], 0.784; in assay [4], 0.836; in assay [5], 0.892; in assay [6], 0.698. Also, the odorant receptor activation in assay [7] came to 0.947; in assay [8], 0.912; in [9] it was 1.23; in assay [10], 1.18; in assay [11], 0.848; in assay [12] it was 0.911. Besides, the odorant receptor activation in assay [13] was 1.17; in [14] it was 0.929; in [15], 0.726; in assay [16], 1.11; in assay [17], 0.893; in assay [18], 1.03. The odorant receptor activation in assay [19] worked out at 1.09; in assay [20] it was 1.14.

In the case of `CC1=CCC(C(C)(C)O)CC1` (stereo not given) [terpineol], the odorant receptor activation came out at 0.822 in assay [1]; 1.24 in assay [2]; 0.814 in assay [3]; 1.06 in assay [4]; 1.01 in assay [5]; 2.47 in assay [6]. In addition, the odorant receptor activation in assay [7] was 1.33; in [8] it was 0.985; in assay [9], 1.24; in assay [10], 0.906; in [11], 0.782; in [12] it was 1.11. In addition, the odorant receptor activation amounted to 1.02 in [13]; 1.07 in assay [14]; 6.05 in assay [15]; 1.01 in assay [16]; 1.03 in assay [17]; 0.972 in assay [18]. Besides, the odorant receptor activation was found to be 0.888 in assay [19] and 1.18 in assay [20].

Regarding `c1cnccn1` [pyrazine], the odorant receptor activation in assay [1] is 0.782; in [2], 0.961; in [3] it was 1.07; in assay [4], 0.908; in assay [5], 0.883; in assay [6] it was 0.615. The odorant receptor activation in [7] came out at 1.33; in assay [8], 0.813; in assay [9], 0.874; in assay [10], 0.68; in assay [11], 0.659; in [12] it was 0.777. For the same molecule, the odorant receptor activation amounted to 0.961 in [13]; 1.04 in [14]; 0.879 in [15]; 0.875 in assay [16]; 0.604 in [17]; 0.976 in assay [18]. Also, the odorant receptor activation in assay [19] amounted to 0.921; in assay [20], 0.812.

With `CCCCCCOC(=O)CCC` [hexyl butyrate], the odorant receptor activation in assay [1] came out at 0.849; in assay [2], 0.639; in assay [3], 0.775; in [4], 0.912; in assay [5], 0.748; in assay [6] it was 0.747. For the same molecule, the odorant receptor activation in [7] is 0.803; in assay [8], 0.998 and 0.837; in [9], 1.01; in assay [10] it was 0.981; in [11], 1.11 and 0.785; in assay [12], 0.896. In addition, the odorant receptor activation in [13] is 0.846; in [14], 0.908; in [15], 0.774; in assay [16], 0.936; in assay [17], 0.794; in assay [18], 1.35 and 0.807. Also, the odorant receptor activation was 1.41 and 0.838 in assay [19]; 0.914 in [20].

On to `CC(C)CC(=O)O` [isovaleric acid], for which the odorant receptor activation in assay [1] was found to be 0.768; in assay [2], 0.999; in assay [3], 0.96; in assay [4] it was 0.992; in assay [5] it was 1.1; in assay [6] it was 0.893. For the same molecule, the odorant receptor activation in assay [7] came to 1.15; in assay [8], 1; in assay [9] it was 2.17; in [10] it was 1.28; in [11], 0.811; in assay [12], 1.01. Moreover, the odorant receptor activation in assay [13] worked out at 1.51; in assay [14], 1.2; in [15] it was 0.828; in assay [16], 0.996; in assay [17], 0.847; in [18], 0.847. Further, the values for the odorant receptor activation in assay [19] and in assay [20] were 0.747 and 1.14, respectively.

Turning to `CCC1(O)C2(C)CCC(C2)C1(C)C` (stereo not given) [2-ethylfenchol], the odorant receptor activation in assay [1] amounted to 0.832; in assay [2], 1.43; in assay [3], 0.835; in [4], 0.773; in assay [5] it was 0.924; in assay [6], 0.962. Also, the odorant receptor activation in assay [7] was found to be 0.886; in assay [8], 1.05; in [9], 1.42; in [10] it was 0.733; in [11] it was 0.628; in assay [12] it was 1.2. The odorant receptor activation in [13] came to 1.66; in assay [14] it was 1.15; in assay [15], 0.786; in assay [16], 1.5; in assay [17] it was 0.748; in assay [18] it was 1.27. For the same molecule, the odorant receptor activation is 0.977 in assay [19] and 0.824 in assay [20].

Consider `O=C1CCCCCCCCCCCCCCO1` [pentadecalactone], for which the odorant receptor activation turned out to be 0.568 in assay [1]; 0.876 in [2]; 1.05 in [3]; 0.7 in [4]; 0.992 in assay [5]; 0.605 in assay [6]. Also, the odorant receptor activation in assay [7] was 1.14; in assay [8] it was 0.89; in [9] it was 0.746; in [10] it was 0.737; in [11], 0.722; in assay [12], 0.763. Also, the odorant receptor activation in assay [13] was 0.689; in [14], 0.875; in assay [15] it was 0.761; in assay [16], 0.758; in assay [17], 0.592; in assay [18], 0.806. For the same molecule, the odorant receptor activation in [19] worked out at 0.893; in assay [20] it was 0.697.
